According to patent US12569437B2, “Disease-site-specific liposomal formulation” (Osaka University, priority 2017, dated 2026):

Assays:
[1] = Body weight and heart and lung weights in J2N-k hamsters; format: in vivo, hamster; settings: at dissection
Procedure: Dissection was performed as follows. After all of the blood was collected from the abdominal aorta, and the hamsters were euthanized under isoflurane anesthesia, the heart and lungs were removed and weighed. After the weights thereof were measured, the removed parts, including the left and right ventricles, were divided into three parts; i.e., apical, middle, and basal parts, at intervals of about 2 mm along the short axis.
Tables 26 and 27 show the body weight change at the time of grouping and at the time of dissection, and the weights of heart and lung at the time of dissection.

[2] = Body weight and heart weight in rat myocardial ischemia model; format: in vivo; settings: 3.0 mg/kg single i.v.; day 14
Procedure: Dissection was performed after the completion of the echocardiography at day 14 after the administration of the test substance. For dissection, all of the blood was collected from the abdominal aorta, and the rats were euthanized under isoflurane anesthesia; thereafter, the heart was removed and weighed. After measuring the heart weight, the infarct area, including the left and right ventricles, was divided into three parts along the short axis.

O=C(O)COc1cccc2c1CCC=C2CCO/N=C(\c1ccccc1)c1cccnc1 [Compound (A), ({5-[2-({[(1E)-phenyl(pyridin-3-yl)methylene]amino}oxy)ethyl]-7,8-dihydronaphthalen-1-yl}oxy)acetic acid]
Tissue weight per 100 g of the body weight (g) Heart ([1]; 3.0 mg/kg i.v. once/2 weeks): 0.3475 ± 0.0165 g | Tissue weight per 100 g of the body weight (g) Heart ([1]; 3.0 mg/kg p.o. twice/day): 0.3404 ± 0.0032 g | Heart weight per 100 g of body weight [2]: 0.3267 ± 0.0235 g | Total weight of isolated heart [2]: 1.3312 ± 0.1827 g
